# Measured values taken from PubChem BioAssay AID248 (DTP/NCI, 2004).
# The list is a part of this screen's results and no random one: it is rich in T/C values a quarter to a half above the control, in often repeated tests (any T/C) and in doses without a T/C. Other doses and runs of a compound stand elsewhere. T/C gives the treated animals as a percentage of the vehicle group. Some doses have a count of surviving animals in place of a T/C: the source files T/C as zero there, which appears to mark a toxic dose or a test without result, not a measured value. Some doses without a T/C left all or most animals alive at the check, yet need not have been tolerated: survival well below the control is almost never listed, so the zero probably covers shortened survival too. Survivors were counted at the toxicity check, usually on the fifth day, unless a day is given; later deaths do not show. Schedule codes are those of the source, taken here to give the interval after Q, in days (D) or hours (H), and the number of doses after X. Some entries hold several experiments; their values stand side by side, smallest first. For survival time, the PubChem record calls one and a half times the control and up active, and a quarter to a half above the control has no call in these data; cut-offs in other NCI protocols can differ.
# System: L1210 leukemia ip in BDF1 mice, survival T/C
# Experiment: NCI In Vivo Anticancer Drug Screen. Data for tumor model L1210 Leukemia (intraperitoneal) in B6D2F1 (BDF1) mice
# Conditions: T/C endpoint: mean survival time, higher T/C = longer survival
# [1] = dose: 100.0 mg/kg/injection, schedule: Q04DX003 (ip), vehicle: Klucel (hydroxypropylcellulose) (HPC)
# [2] = dose: 400.0 mg/kg/injection, schedule: Q01DX001 (ip), vehicle: saline
# [3] = dose: 2.5 mg/kg/injection, schedule: Q01DX009 (ip), vehicle: saline
# [4] = dose: 5.0 mg/kg/injection, schedule: Q01DX009 (ip), vehicle: saline
# [5] = dose: 200.0 mg/kg/injection, schedule: Q04DX003 (ip), vehicle: saline
# [6] = dose: 400.0 mg/kg/injection, schedule: Q04DX003 (ip), vehicle: saline
# [7] = dose: 400.0 mg/kg/injection, schedule: Q04DX003 (ip), vehicle: saline with Tween-80
# [8] = dose: 80.0 mg/kg/injection, schedule: Q01DX001 (ip), vehicle: saline
# [9] = dose: 100.0 mg/kg/injection, schedule: Q01DX001 (ip), vehicle: saline
# [10] = dose: 200.0 mg/kg/injection, schedule: Q01DX001 (ip), vehicle: saline
# [11] = dose: 50.0 mg/kg/injection, schedule: Q04DX002 (ip), vehicle: saline with Tween-80
# [12] = dose: 100.0 mg/kg/injection, schedule: Q04DX002 (ip), vehicle: saline with Tween-80
# [13] = dose: 200.0 mg/kg/injection, schedule: Q04DX002 (ip), vehicle: saline with Tween-80
smiles,measurement,setting,value
CCC[CH2][Pb]([CH2]CCC)([CH2]CCC)[n]1ccnc1,survivor count,"dose: 6.0 mg/kg/injection, schedule: Q01DX009 (ip), vehicle: Klucel (hydroxypropylcellulose) (HPC)",4 of 6
same,survivor count,"dose: 12.5 mg/kg/injection, schedule: Q01DX009 (ip), vehicle: Klucel (hydroxypropylcellulose) (HPC)",2 of 6
same,survivor count,"dose: 25.0 mg/kg/injection, schedule: Q01DX009 (ip), vehicle: Klucel (hydroxypropylcellulose) (HPC)",0 of 6
same,survivor count,"dose: 50.0 mg/kg/injection, schedule: Q04DX003 (ip), vehicle: Klucel (hydroxypropylcellulose) (HPC)",2 of 6
same,survivor count,[1],2 of 6
same,survivor count,"dose: 200.0 mg/kg/injection, schedule: Q04DX003 (ip), vehicle: Klucel (hydroxypropylcellulose) (HPC)",0 of 6
same,survivor count,[2],0 of 4
O=C(Nc1ccc(Cl)cc1)O/N=C/c1ccccn1,survivor count,"dose: 100.0 mg/kg/injection, schedule: Q01DX009 (ip), vehicle: saline with Tween-80",6 of 6
same,survivor count,"dose: 200.0 mg/kg/injection, schedule: Q01DX009 (ip), vehicle: saline with Tween-80",6 of 6
O=NN(CCCl)C(=O)Nc1ccc2[nH]c3ccccc3c2c1,T/C,"dose: 30.0 mg/kg/injection, schedule: Q01DX009 (ip), vehicle: Klucel (hydroxypropylcellulose) (HPC)",126 % of control
same,T/C,"dose: 45.0 mg/kg/injection, schedule: Q01DX009 (ip), vehicle: Klucel (hydroxypropylcellulose) (HPC)",129 % of control
same,T/C,"dose: 45.0 mg/kg/injection, schedule: Q01DX009 (ip), vehicle: carboxymethylcellulose (CMC)",139 % of control
same,T/C,"dose: 65.0 mg/kg/injection, schedule: Q01DX009 (ip), vehicle: Klucel (hydroxypropylcellulose) (HPC)",134 and 142 % of control
same,T/C,"dose: 100.0 mg/kg/injection, schedule: Q01DX009 (ip), vehicle: Klucel (hydroxypropylcellulose) (HPC)",126 % of control
same,T/C,"dose: 130.0 mg/kg/injection, schedule: Q01DX009 (ip), vehicle: Klucel (hydroxypropylcellulose) (HPC)",138 % of control
same,T/C,"dose: 177.0 mg/kg/injection, schedule: Q01DX009 (ip), vehicle: carboxymethylcellulose (CMC)",140 % of control
same,T/C,"dose: 400.0 mg/kg/injection, schedule: Q01DX009 (ip), vehicle: carboxymethylcellulose (CMC)",148 % of control
Cc1ccc(Nc2ccc([N+](=O)[O-])cc2[N+](=O)[O-])cc1C,survivor count,[1],6 of 6
CS(=O)(=O)Nc1ccc(Nc2c3ccccc3nc3cc([N+](=O)[O-])ccc23)cc1,T/C,"dose: 0.04 mg/kg/injection, schedule: Q01DX009 (ip), vehicle: saline",134 % of control
same,T/C,"dose: 0.08 mg/kg/injection, schedule: Q01DX009 (ip), vehicle: saline",128 % of control
same,T/C,"dose: 0.24 mg/kg/injection, schedule: Q01DX009 (ip), vehicle: saline",137 % of control
same,T/C,"dose: 0.31 mg/kg/injection, schedule: Q01DX009 (ip), vehicle: saline",138 % of control
same,T/C,"dose: 0.36 mg/kg/injection, schedule: Q01DX009 (ip), vehicle: saline",142 % of control
same,T/C,"dose: 0.55 mg/kg/injection, schedule: Q01DX009 (ip), vehicle: acetone",136 % of control
same,T/C,"dose: 0.62 mg/kg/injection, schedule: Q01DX009 (ip), vehicle: saline",127 % of control
same,T/C,"dose: 0.9 mg/kg/injection, schedule: Q01DX001 (ip), vehicle: acetone",130 % of control
same,T/C,"dose: 1.25 mg/kg/injection, schedule: Q01DX009 (ip), vehicle: saline",129 and 147 % of control
same,T/C,"dose: 1.37 mg/kg/injection, schedule: Q01DX001 (ip), vehicle: saline",134 % of control
same,T/C,"dose: 2.06 mg/kg/injection, schedule: Q01DX001 (ip), vehicle: saline",145 % of control
same,T/C,[3],135 % of control
same,T/C,[4],126 and 143 % of control
same,T/C,"dose: 5.0 mg/kg/injection, schedule: Q01DX009 (sc), vehicle: Klucel (hydroxypropylcellulose) (HPC)",132 % of control
same,survivor count,"dose: 10.0 mg/kg/injection, schedule: Q01DX009 (ip), vehicle: Klucel (hydroxypropylcellulose) (HPC)",6 of 6
same,survivor count,"dose: 10.0 mg/kg/injection, schedule: Q01DX009 (ip), vehicle: saline",6 of 6
same,survivor count,"dose: 20.0 mg/kg/injection, schedule: Q01DX009 (ip), vehicle: Klucel (hydroxypropylcellulose) (HPC)",4 of 6
same,survivor count,"dose: 20.0 mg/kg/injection, schedule: Q01DX009 (ip), vehicle: saline",6 of 6
same,survivor count,"dose: 40.0 mg/kg/injection, schedule: Q01DX009 (ip), vehicle: Klucel (hydroxypropylcellulose) (HPC)",2 of 6
same,survivor count,"dose: 40.0 mg/kg/injection, schedule: Q01DX009 (ip), vehicle: saline",6 of 6
same,T/C,"dose: 50.0 mg/kg/injection, schedule: Q01DX001 (ip), vehicle: saline",125 % of control
same,survivor count,"dose: 80.0 mg/kg/injection, schedule: Q01DX009 (ip), vehicle: Klucel (hydroxypropylcellulose) (HPC)",0 of 6
CC(=O)/C(C)=C/C(=O)O,survivor count,[5],2 of 6
same,survivor count,[6],1 of 6
O=[N+]([O-])c1cc(Cl)c(O)c([N+](=O)[O-])c1O,survivor count,"dose: 150.0 mg/kg/injection, schedule: Q01DX001 (ip), vehicle: carboxymethylcellulose (CMC)",0 of 6
same,survivor count,"dose: 300.0 mg/kg/injection, schedule: Q01DX001 (ip), vehicle: carboxymethylcellulose (CMC)",0 of 6
CC1OC(OC2CC(O)C3(CO)C4C(O)CC5(C)C(C6=CC(=O)OC6)CCC5(O)C4CCC3(O)C2)C(O)C(O)C1O (centres undefined),survivor count,"dose: 10.0 mg/kg/injection, schedule: Q01DX001 (ip), vehicle: saline",2 of 6
same,survivor count,"dose: 20.0 mg/kg/injection, schedule: Q01DX001 (ip), vehicle: saline",0 of 6
same,survivor count,"dose: 25.0 mg/kg/injection, schedule: Q01DX001 (ip), vehicle: saline",2 of 6
same,survivor count,"dose: 40.0 mg/kg/injection, schedule: Q01DX001 (ip), vehicle: saline",0 of 6
COc1cccc2c1C(=O)c1c(O)c3c(c(O)c1C2=O)CC(O)(C(C)=O)CC3OC1CC(N)C(OC2CC(N)C(O)C(C)O2)C(C)O1 (centres undefined),T/C,[3],138 % of control
same,T/C,[4],125 % of control
Cc1ccccc1Nc1n[nH]c(=S)s1,survivor count,[7],0 of 6
COc1ccc(N2CCNCC2)cc1,survivor count,[8],0 of 6
same,survivor count,[9],0 of 6
same,survivor count,[10],0 of 6
same,survivor count,[2],0 of 6
C1CCC2=NCCCN2CC1,survivor count,[8],2 of 6
same,survivor count,[9],3 of 6
same,survivor count,[10],1 of 6
same,survivor count,[2],0 of 6
CCOC(=O)c1cnc(NN)nc1Nc1ccccc1Cl,survivor count,[7],3 of 6
CC(C)=CCC(C#N)(CCN(C)C)c1cccc2ccccc12 (centres undefined),survivor count,[5],2 of 6
same,survivor count,[6],0 of 6
ClC1=NC(Cl)(Cl)C(Cl)=C1Cl,survivor count,[11],0 of 3
same,survivor count,[12],0 of 3
same,survivor count,[13],0 of 3
C#[C][Sn]([CH2]CCC)([CH2]CCC)[CH2]CCC,survivor count,"dose: 3.12 mg/kg/injection, schedule: Q01DX009 (ip), vehicle: saline with Tween-80",1 of 6
same,survivor count,"dose: 6.25 mg/kg/injection, schedule: Q01DX009 (ip), vehicle: saline with Tween-80",0 of 6 and 4 of 6
same,survivor count,"dose: 12.5 mg/kg/injection, schedule: Q01DX009 (ip), vehicle: saline with Tween-80",0 of 6
same,survivor count,"dose: 25.0 mg/kg/injection, schedule: Q01DX009 (ip), vehicle: saline with Tween-80",0 of 6
same,survivor count,"dose: 25.0 mg/kg/injection, schedule: Q04DX002 (ip), vehicle: saline with Tween-80",0 of 3
same,survivor count,[11],0 of 3
same,survivor count,[12],0 of 3
same,survivor count,[13],0 of 3
same,survivor count,"dose: 400.0 mg/kg/injection, schedule: Q04DX002 (ip), vehicle: saline with Tween-80",0 of 3
